{"source": "PubChem BioAssay AID1159584 (Peter MacCallum Cancer Centre, 2016)", "assay": "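Genes that CDH1-null MCF10A cells selectively depend on to survive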 (primary screen)", "system": "human MCF10A breast epithelial cells, parental and CDH1-null", "reagents": "siRNA against human genes", "measurement": "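Cell viability by CellTiter-Glo ATP luminescence, each line scaled to the mean of mock wells across plates, then CDH1-null over parental ratio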", "reading the numbers": "CDH1-null / parental viability ratio: higher = CDH1-null cells survive relatively better than parental; CDH1-null viability vs mock: higher = more viable CDH1-null cells", "note": "Shown is an unselected part of about 18,000 reagents. Not all columns of the deposit are shown. Not given: the amount of reagent, the time to read-out."}
{"Gene": "CPA6 (GeneID 57094)", "CDH1-null / parental viability ratio": 1.14, "CDH1-null viability vs mock (fraction of mock)": 0.96}
{"Gene": "KCNU1 (GeneID 157855)", "CDH1-null / parental viability ratio": 1.45, "CDH1-null viability vs mock (fraction of mock)": 1.1}
{"Gene": "RNF41 (GeneID 10193)", "CDH1-null / parental viability ratio": 0.71, "CDH1-null viability vs mock (fraction of mock)": 0.56}
{"Gene": "C11orf58 (GeneID 10944)", "CDH1-null / parental viability ratio": 1.04, "CDH1-null viability vs mock (fraction of mock)": 1.2}
{"Gene": "SNX20 (GeneID 124460)", "CDH1-null / parental viability ratio": 0.92, "CDH1-null viability vs mock (fraction of mock)": 1.17}
{"Gene": "DMAC2 (GeneID 55101)", "CDH1-null / parental viability ratio": 1.03, "CDH1-null viability vs mock (fraction of mock)": 1.05}
{"Gene": "TGS1 (GeneID 96764)", "CDH1-null / parental viability ratio": 0.81, "CDH1-null viability vs mock (fraction of mock)": 0.56}
{"Gene": "HAUS8 (GeneID 93323)", "CDH1-null / parental viability ratio": 1.02, "CDH1-null viability vs mock (fraction of mock)": 1.04}
{"Gene": "GPR3 (GeneID 2827)", "CDH1-null / parental viability ratio": 0.65, "CDH1-null viability vs mock (fraction of mock)": 0.43}
{"Gene": "PIPOX (GeneID 51268)", "CDH1-null / parental viability ratio": 0.96, "CDH1-null viability vs mock (fraction of mock)": 0.5}
{"Gene": "COQ8B (GeneID 79934)", "CDH1-null / parental viability ratio": 0.64, "CDH1-null viability vs mock (fraction of mock)": 0.46}
{"Gene": "DYNLRB2 (GeneID 83657)", "CDH1-null / parental viability ratio": 0.77, "CDH1-null viability vs mock (fraction of mock)": 0.6}
{"Gene": "TBPL2 (GeneID 387332)", "CDH1-null / parental viability ratio": 0.79, "CDH1-null viability vs mock (fraction of mock)": 0.63}
{"Gene": "COX4I1 (GeneID 1327)", "CDH1-null / parental viability ratio": 0.98, "CDH1-null viability vs mock (fraction of mock)": 0.8}

Targets above whose target name begins with T or t (2):
{"Gene": "TGS1 (GeneID 96764)", "CDH1-null / parental viability ratio": 0.81, "CDH1-null viability vs mock (fraction of mock)": 0.56}
{"Gene": "TBPL2 (GeneID 387332)", "CDH1-null / parental viability ratio": 0.79, "CDH1-null viability vs mock (fraction of mock)": 0.63}
